Measured values taken from patent CN113861292A.
No constants are given. Whether binding was seen depends on the method and setting. Some results given as binding are weak or reduced against the parent protein; the word gives no strength.

The chains behind the UniProt entries cited, without tags or fusion partners. Where a name states a change or a piece, a line headed by the entry shows the natural chain unless it says otherwise. A line that says so, or that is headed by a name, gives the form on record, which may keep a tag or linker.
cCD40-His(食蟹猴CD40) (食蟹猴 (cynomolgus monkey)) (G7PG38, form named): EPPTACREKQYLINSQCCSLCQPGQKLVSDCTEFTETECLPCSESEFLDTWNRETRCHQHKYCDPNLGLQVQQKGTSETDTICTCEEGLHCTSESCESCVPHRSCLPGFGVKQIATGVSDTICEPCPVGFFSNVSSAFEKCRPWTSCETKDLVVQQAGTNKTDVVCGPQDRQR

Target: cCD40-His(食蟹猴CD40) (食蟹猴 (cynomolgus monkey)) (UniProt G7PG38)
Test: ELISA, 2 μg/ml cCD40-his coated, HRP second antibody

B1: 抗体25 (antibody, human IgG1, kappa, V domains shown)
VH: EVQLVESGGGLVQPGGSLRLSCAASGFSFGTYAMSWVRQAPGKGLEWVSGIDSGTGNPFYADSVKGRFTISRDNSKNTLYLQMNSLRAEDTAVYYCARALYYTGFYRPLDYWGQGTLVTVSS
VL: DIQMTQSPSSLSASVGDRVTITCRASQGISSYLAWYQQKPGKAPKLLIYAASSLQSGVPSRFSGSGSGTDFTLTISSLQPEDFATYYCQQHYTTPPTFGQGTKVEIKR
For B1, the binding was “binds”.
